{
  "source": "PubChem BioAssay AID540256",
  "about": "(National Center for Advancing Translational Sciences (NCATS), 2011)",
  "note": "“And” between values parts separate entries of the source, which are not always exact repeats. Identical values can stand only once. In all, about 300,000 compounds went through this assay and about 3,700 (1.2%) were called active. This list was built around the results that the source calls inconclusive (neither active nor inactive); the mix of calls is not that of the screen. Calls come from the whole dose curve; tested in HEK293 cells. A potency beside an inconclusive call is a rough fit, not a confirmed value. Potency is the fitted concentration of half-maximal effect.",
  "data": [
    {"assay": "qHTS for Inhibitors of binding or entry into cells for Lassa Virus; note: nearly all actives have a fitted effect of over 50% in size", "conditions": "Lassa virus pseudotype entry inhibition, cell reporter; series mostly up to 37.9 µM", "values": [
      {"molecule": "COc1ccc(CNC(=O)COC(=O)c2cc3ccccc3o2)cc1", "Potency": "inconclusive: 6.31 µM [inhibitor, single point]"},
      {"molecule": "CCOCCCN1CN(S(=O)(=O)c2ccc(Cl)cc2)c2nc3ccccc3nc21", "Potency": "inactive"},
      {"molecule": "Cc1ccc(C)c(OCCn2cc(/C=C(/C#N)C(=O)NCC3CCCO3)c3ccccc32)c1", "note": "(configuration not stated)", "Potency": "inconclusive: 32.6 µM [inhibitor, single point]"},
      {"molecule": "CCC(=O)N1c2ccc(S(=O)(=O)N(CCO)Cc3ccccc3)cc2CC1C", "note": "(configuration not stated)", "Potency": "inconclusive: 11.2 µM [inhibitor, partial curve, poor fit]"},
      {"molecule": "Cc1ccc(OCC(=O)Nc2ccc(F)cc2)c([N+](=O)[O-])n1", "Potency": "inactive"},
      {"molecule": "CCN(C(=O)Cn1c(=O)oc2cc(S(=O)(=O)N3CCCC3)ccc21)c1cccc(C)c1", "Potency": "inactive"},
      {"molecule": "CN(Cc1nc2ccccc2n1C)C(=O)c1ccco1", "Potency": "inconclusive: 3.16 µM [activator, partial curve, poor fit]"},
      {"molecule": "CCOc1ccccc1CNC(=O)CCc1cn(Cc2ccc(Cl)cc2)c2ccccc12", "Potency": "inactive"},
      {"molecule": "CC(=O)c1ccc(NC(=O)c2cnsn2)cc1", "Potency": "inconclusive: 12.6 µM [inhibitor, single point]"},
      {"molecule": "N#C/C(=C\\Nc1ccc2cn[nH]c2c1)c1nc(-c2ccccc2)cs1", "Potency": "inconclusive: 35.5 µM [inhibitor, single point]"},
      {"molecule": "Cc1n[nH]c(C)c1S(=O)(=O)N(CC(=O)NCc1ccccc1Cl)c1ccc(C(C)C)cc1", "Potency": "inconclusive: 12.6 µM [inhibitor, single point]"},
      {"molecule": "Clc1ccc(-c2cn3c(n2)CCC3)cc1", "Potency": "inconclusive: 35.5 µM [inhibitor, single point]"},
      {"molecule": "COc1ccc2[nH]cc(C(=O)CNc3nc(C)cs3)c2c1", "Potency": "inconclusive: 12.6 µM [activator, partial curve]"},
      {"molecule": "CCOc1ccc(C(=O)NCC(=O)OCC(=O)NC2CCCC2)cc1", "Potency": "inactive"},
      {"molecule": "CC(=O)c1c(NC(=O)c2ccccc2)[nH]c(-c2ccccc2)nc1=S", "Potency": "inactive"},
      {"molecule": "CC(C)c1ccc2c(c1)C1(NN=C(c3ccccc3)S1)C(=O)N2", "note": "(configuration not stated)", "Potency": "inconclusive: 35.5 µM [inhibitor, single point]"},
      {"molecule": "O=C1CC(c2nc(-c3cccc(Cl)c3)no2)CN1c1ccc2c(c1)OCCO2", "note": "(configuration not stated)", "Potency": "inconclusive: 7.08 µM [activator, partial curve]"},
      {"molecule": "COc1ccc(COc2cc(-c3cccc(OC)c3)nc3ccc(NC(=O)c4ccccc4)cc23)cc1", "Potency": "inconclusive: 32.6 µM [inhibitor, partial curve, poor fit]"},
      {"molecule": "CCn1c(SCC(=O)c2ccc(Cl)cc2)nnc1C(C)C", "Potency": "inactive"},
      {"molecule": "Cc1ccc(Cl)cc1NCc1nnc2n1CCCCC2", "Potency": "inactive"},
      {"molecule": "COc1cccc(CNC(=O)C2CCCN(c3ncnc4onc(-c5ccc(F)cc5)c34)C2)c1", "note": "(configuration not stated)", "Potency": "inconclusive: 1.12 µM [activator, full curve, poor fit]"},
      {"molecule": "CC(=O)N1CCN(c2ccc(NCc3cccs3)cc2)CC1", "Potency": "inactive"},
      {"molecule": "COC(=O)C1=CN(c2ccc(OC)cc2)C=C(C(=O)OC)C1c1cc(OC)c(OC)cc1OC", "Potency": "active: 0.631 µM"},
      {"molecule": "Cc1ccc(NC(=O)C2CCCN(S(=O)(=O)c3c(C)noc3C)C2)cc1F", "note": "(configuration not stated)", "Potency": "inactive"},
      {"molecule": "COc1ccc(-c2csc(NC(=O)c3ccccc3S(C)(=O)=O)n2)cc1", "Potency": "inconclusive: 11.2 µM [inhibitor, partial curve, poor fit]"},
      {"molecule": "O=c1c2ccccc2nc(-c2ccccc2)n1-c1ccccc1O", "Potency": "inconclusive: 35.5 µM [inhibitor, single point]"},
      {"molecule": "Cc1ccc2cc(C#N)c(SCC(=O)N3CCCC3)nc2c1", "Potency": "inconclusive: 35.5 µM [activator, partial curve, poor fit]"},
      {"molecule": "COc1ccccc1/C=C/C=N/N1CCN(c2ccccn2)CC1", "Potency": "inactive"},
      {"molecule": "S=C(NCCCN1CCOCC1)Nc1ccc(Nc2ccccc2)cc1", "Potency": "inconclusive: 20 µM [inhibitor, partial curve, poor fit]"},
      {"molecule": "Cc1ccc(-c2nc(-c3cccnc3)sc2CC(=O)Nc2ccc(C)c(Cl)c2)cc1", "Potency": "inconclusive: 35.5 µM [inhibitor, single point]"},
      {"molecule": "CNC(=O)c1cncc(C=Cc2ccccc2C)c1", "Potency": "inconclusive: 0.0007 µM [inhibitor, full curve, poor fit]"},
      {"molecule": "COc1ccc(-c2onc(C)c2C)cc1S(=O)(=O)NCc1ccc(Br)cc1", "Potency": "inconclusive: 35.5 µM [inhibitor, single point]"},
      {"molecule": "Cc1ccc(-c2[nH]ncc2C(=O)c2ccc(Br)cc2)c(O)c1", "Potency": "inactive"},
      {"molecule": "CN(C)c1cc2c(Nc3ccc4c(cnn4Cc4ccccc4)c3)ncnc2cn1", "Potency": "inconclusive: 35.3 µM [inhibitor, single point] and inconclusive: 231 nM [activator, full curve, poor fit]"},
      {"molecule": "CCN(Cc1ccc(OC)c(F)c1)C(=O)CCl", "Potency": "inconclusive: 35.5 µM [inhibitor, partial curve, poor fit]"},
      {"molecule": "Cc1ccc(C2=NCC(=O)N(CC(=O)N3CCCCC3)c3sc(C)c(C)c32)cc1", "Potency": "inconclusive: 2.06 µM [inhibitor, partial curve, poor fit]"},
      {"molecule": "COc1ccc(OC)c(NC(=O)Cn2c(CCC(=O)O)ccc2-c2ccc(C)cc2)c1", "Potency": "inactive"},
      {"molecule": "CCc1nnc2c(NCCc3ccc(OC)c(OC)c3)nc3ccccc3n12", "Potency": "inconclusive: 0.316 µM [inhibitor, full curve, poor fit]"},
      {"molecule": "Cc1cc(C)c(C)c(S(=O)(=O)NC2CCCCC2)c1C", "Potency": "inactive"},
      {"molecule": "CCN1C(=O)c2ccc(C(=O)O)cc2C1=O", "Potency": "inconclusive: 1.26 µM [activator, single point]"},
      {"molecule": "CCN(CC)CCOC(=O)c1ccc(Cl)cc1", "Potency": "inactive"},
      {"molecule": "CCOc1cccc(CNc2ccc(O)cc2)c1OCc1ccccc1Cl", "Potency": "inconclusive: 8.91 µM [inhibitor, partial curve, poor fit]"},
      {"molecule": "COc1ccc(NS(=O)(=O)c2cc(NC(=O)c3ccco3)ccc2N2CCCC2)cc1", "Potency": "inconclusive: 5.17 µM [inhibitor, partial curve, poor fit]"},
      {"molecule": "COc1ccc(CNC(=O)COC(=O)c2ccc(OCc3c(C)noc3C)cc2)cc1OC", "Potency": "inconclusive: 3.55 µM [activator, single point]"},
      {"molecule": "Cc1ccc(C)c(S(=O)(=O)N2CCN(C(=O)CNC(=O)c3ccc4ccccc4c3)CC2)c1", "Potency": "inconclusive: 10 µM [inhibitor, partial curve, poor fit]"},
      {"molecule": "N#C/C(=C\\c1ccc(-c2ccc(F)cc2F)o1)c1nc2ccccc2[nH]1", "Potency": "inconclusive: 35.5 µM [inhibitor, single point]"},
      {"molecule": "COc1ccc(CNC(=O)c2ccc3[nH]c(C)c(C)c3c2)c(OC)c1", "Potency": "inconclusive: 1.12 µM [inhibitor, full curve, poor fit]"},
      {"molecule": "N#C/C(=C\\c1c(Oc2ccccc2F)nc2ccccn2c1=O)C(=O)NC1CCS(=O)(=O)C1", "note": "(configuration not stated)", "Potency": "inactive"},
      {"molecule": "COc1ccc(CCNCC(=O)Nc2ccc(C)c(S(=O)(=O)N(C)C)c2)cc1", "Potency": "inconclusive: 10 µM [inhibitor, partial curve, poor fit]"},
      {"molecule": "CCOc1ccc(CCNC(=O)c2c(C)oc3ncnc(N4CCOCC4)c23)cc1", "Potency": "inconclusive: 2.82 µM [inhibitor, full curve]"},
      {"molecule": "CCCc1nc2ccccc2c(=O)n1/N=C/c1c(C)[nH]n(-c2ccc(C)cc2)c1=O", "Potency": "inconclusive: 25.1 µM [inhibitor, single point]"},
      {"molecule": "O=c1cc(CN2CCC(Cc3ccccc3)CC2)nc2sccn12", "Potency": "inactive"},
      {"molecule": "Cc1ccc(OCC(=O)N(Cc2ccco2)C2CCS(=O)(=O)C2)cc1", "note": "(configuration not stated)", "Potency": "inconclusive: 7.94 µM [activator, partial curve, poor fit]"},
      {"molecule": "COc1ccc(/C=N/NC(=O)c2ccccc2O)cc1CN1CCOCC1", "Potency": "inactive"},
      {"molecule": "COC1CC(C)C(OC)c2cc(O)cc(c2O)NC(=O)C(C)=CC=CC(C)C(OC(N)=O)C(C)=CC(C)C1OC", "note": "(configuration not stated)", "Potency": "inconclusive: 3.55 µM [inhibitor, partial curve, poor fit]"},
      {"molecule": "CN(C)C(C)(C)C#CCCCCC#CC(C)(C)N(C)C", "Potency": "inconclusive: 18.3 µM [inhibitor, single point]"},
      {"molecule": "Cc1ccc(C2CC(c3ccc(Cl)cc3)=NNC2=O)cc1", "note": "(configuration not stated)", "Potency": "inconclusive: 14.1 µM [inhibitor, single point]"},
      {"molecule": "C=CCn1c(NCc2c[nH]c3ccccc23)nc2ccccc21", "Potency": "inconclusive: 2.51 µM [inhibitor, partial curve, poor fit]"},
      {"molecule": "Cc1ccc(S(=O)(=O)NCC2CCC(C(=O)N(C)Cc3ccccc3)CC2)cc1", "note": "(configuration not stated)", "Potency": "inconclusive: 1.12 µM [inhibitor, full curve, poor fit]"},
      {"molecule": "NC(=O)c1nsc(C(=O)N(c2ccccc2)C(C(=O)NCC2CCCO2)c2ccc(F)cc2)c1N", "note": "(configuration not stated)", "Potency": "inactive"},
      {"molecule": "CC(Oc1ccc(F)cc1)C(=O)Nc1cc(-c2ccc(F)c(F)c2)no1", "note": "(configuration not stated)", "Potency": "inactive"},
      {"molecule": "COc1ccc(OCC(O)CNC(=O)c2sccc2Cl)cc1", "note": "(configuration not stated)", "Potency": "inactive"},
      {"molecule": "CCCS(=O)(=O)c1c(S(=O)(=O)CCC)c2c(N)cccn2c1C(=O)c1ccccc1", "Potency": "inactive"},
      {"molecule": "CCOc1ccc(NS(=O)(=O)c2ccc3c(c2)CCN3C(C)=O)cc1", "Potency": "inconclusive: 0.631 µM [inhibitor, full curve, poor fit]"},
      {"molecule": "O=C(O)/C=C/c1cccc(NC(=O)c2ccc(Cl)cc2)c1", "Potency": "inconclusive: 6.31 µM [inhibitor, full curve, poor fit]"},
      {"molecule": "NC(=O)c1nsc(C(=O)N(Cc2ccc(F)cc2)C(C(=O)NC2CCCC2)c2ccco2)c1N", "note": "(configuration not stated)", "Potency": "inconclusive: 20 µM [inhibitor, single point]"},
      {"molecule": "O=C(Nc1cccc(F)c1)c1ccc2c(c1)OCCO2", "Potency": "inconclusive: 3.55 µM [inhibitor, partial curve]"}
    ]}
  ]
}
